# Values quoted from earlier work in patent publication US20050203062A1, “Use of tagatose in laxatives” (Spherix Incorporated, priority 2002, published 2005).
# Conditions: FDA-approved value (upper value); cited from earlier work
smiles,measurement,value
"O=C(CO)[C@@H](O)[C@@H](O)[C@H](O)CO [tagatose, D-tagatose]",caloric value approved by the US Food and Drug Administration,1.5 calories per gram
